The record followed here is ChEMBL document CHEMBL5032504, “Discovery and Optimization of a Novel 2H-Pyrazolo[3,4-d]pyrimidine Derivative as a Potent Irreversible Pan-Fibroblast Growth Factor Receptor Inhibitor” (J Med Chem, 2021).

By UniProt entry, the sequences of proteins in these tests, tags left out.
UniProt P22455, whole entry: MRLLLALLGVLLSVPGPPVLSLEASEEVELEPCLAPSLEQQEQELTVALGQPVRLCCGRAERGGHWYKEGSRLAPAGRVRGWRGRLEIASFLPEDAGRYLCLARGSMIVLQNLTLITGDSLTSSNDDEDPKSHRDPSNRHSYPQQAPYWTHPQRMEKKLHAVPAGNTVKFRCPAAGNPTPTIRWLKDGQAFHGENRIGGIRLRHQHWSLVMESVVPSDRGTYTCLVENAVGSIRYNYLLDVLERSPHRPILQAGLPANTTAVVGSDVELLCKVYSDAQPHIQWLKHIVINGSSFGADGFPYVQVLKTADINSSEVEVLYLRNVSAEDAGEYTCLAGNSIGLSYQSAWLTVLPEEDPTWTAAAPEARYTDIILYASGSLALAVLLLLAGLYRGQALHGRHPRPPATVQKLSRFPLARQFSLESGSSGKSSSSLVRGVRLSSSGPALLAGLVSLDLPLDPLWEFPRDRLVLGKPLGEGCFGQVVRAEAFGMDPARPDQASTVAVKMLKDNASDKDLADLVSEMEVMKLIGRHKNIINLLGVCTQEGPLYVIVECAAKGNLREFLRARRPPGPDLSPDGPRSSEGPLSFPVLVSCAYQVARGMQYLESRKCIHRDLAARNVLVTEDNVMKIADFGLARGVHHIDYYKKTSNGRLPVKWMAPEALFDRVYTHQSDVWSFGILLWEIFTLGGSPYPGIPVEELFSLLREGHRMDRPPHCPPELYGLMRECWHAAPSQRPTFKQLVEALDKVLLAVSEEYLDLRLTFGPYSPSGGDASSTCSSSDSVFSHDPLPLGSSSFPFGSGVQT
UniProt P22607, whole entry: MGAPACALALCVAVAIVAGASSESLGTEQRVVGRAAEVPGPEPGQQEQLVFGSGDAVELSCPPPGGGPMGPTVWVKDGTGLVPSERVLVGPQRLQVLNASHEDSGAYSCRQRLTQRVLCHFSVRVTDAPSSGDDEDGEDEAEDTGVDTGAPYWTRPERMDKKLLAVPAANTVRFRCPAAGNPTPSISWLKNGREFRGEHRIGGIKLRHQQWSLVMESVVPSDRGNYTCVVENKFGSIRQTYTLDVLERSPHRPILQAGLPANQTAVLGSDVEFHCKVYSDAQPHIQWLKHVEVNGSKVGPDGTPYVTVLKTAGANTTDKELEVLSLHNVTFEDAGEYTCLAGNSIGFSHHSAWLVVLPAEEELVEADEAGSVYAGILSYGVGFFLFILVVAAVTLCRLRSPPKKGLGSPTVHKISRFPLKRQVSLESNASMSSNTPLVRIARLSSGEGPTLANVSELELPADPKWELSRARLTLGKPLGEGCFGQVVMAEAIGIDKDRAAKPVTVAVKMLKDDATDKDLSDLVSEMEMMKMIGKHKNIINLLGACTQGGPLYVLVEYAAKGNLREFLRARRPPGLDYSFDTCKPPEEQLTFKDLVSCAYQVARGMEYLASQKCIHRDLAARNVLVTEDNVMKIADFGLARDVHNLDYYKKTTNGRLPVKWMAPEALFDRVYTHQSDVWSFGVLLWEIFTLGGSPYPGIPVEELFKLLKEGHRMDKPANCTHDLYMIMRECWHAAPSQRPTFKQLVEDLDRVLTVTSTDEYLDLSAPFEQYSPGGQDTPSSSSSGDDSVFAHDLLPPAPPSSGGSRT

Usually IC50 stands for the concentration at which inhibition is half-maximal. A lower IC50 goes with greater potency in that assay.

Test [1] has as its target Fibroblast growth factor receptor 4 (Homo sapiens, UniProt P22455).
Test [2] concerns the target Fibroblast growth factor receptor 3 (Homo sapiens, UniProt P22607).
In a further test the test system is SNU-16. In words: cells. The following applies: Homo sapiens, SNU-16, 96 h. Type of test: functional, cell-based.
Another test deals with NCI-H1581. The test is described as follows: cells. Type of test: functional, cell-based. The following applies: Homo sapiens, NCI-H1581, 96 h.
Another test concerns SK-HEP1. The test is described as follows: cells. Type of test: functional, cell-based. The following applies: Homo sapiens, SK-HEP1, 96 h.
Another test has as its system NCI-H460. In words: cells. Type of test: functional, cell-based. The following applies: Homo sapiens, NCI-H460, 96 h.
The next test deals with Huh-7. In words: cells. The following applies: Homo sapiens, Huh-7, 96 h. Type of test: functional, cell-based.

In turn, `C=CC(=O)N1CCN(CCCCCn2nc(-c3coc4ccccc34)c3c(N)ncnc32)CC1` displayed an IC50 in test [1] greater than 5 µM.

With `C=CC(=O)N1CCN(CCCCCn2nc(-c3ccc(OCc4ccccc4)cc3)c3c(N)ncnc32)CC1`, the IC50 in test [1] and in test [2] was greater than 5 µM in each case.

In test [1], `COc1cc(OC)cc(-c2nn(CCCCCN3CCN(C(=O)/C=C/CN(C)C)CC3)c3ncnc(N)c23)c1` showed a concentration for half-maximal inhibition (IC50) greater than 5 µM.

For `C/C=C/C(=O)N1CCN(CCCCCn2nc(-c3cc(OC)cc(OC)c3)c3c(N)ncnc32)CC1`, in test [1], the IC50 was greater than 5 µM.

`C=CC(=O)N1CCCC(Cn2nc(-c3cc(OC)cc(OC)c3)c3c(N)ncnc32)C1` (configuration not stated) showed an IC50 in test [1] greater than 5 µM.

In test [1], `C=CC(=O)N1CCC(Cn2nc(-c3cc(OC)cc(OC)c3)c3c(N)ncnc32)C1` (configuration not stated) gave an IC50 greater than 5 µM.

Regarding `C=CC(=O)N1CC[C@H](n2nc(C#Cc3cc(OC)cc(OC)c3)c3c(N)ncnc32)C1` [FUTIBATINIB], the IC50 in the test on SNU-16 is 0.004 µM; with NCI-H1581 it was 0.007 µM; in the test with SK-HEP1, 0.152 µM; in the test with NCI-H460 it was greater than 10 µM; in the test with Huh-7, greater than 10 µM.
